Reference: paper PMC8514473

Sequences of proteins named here, by UniProt entry; tags and fusion partners are left off.
UniProt Q39160: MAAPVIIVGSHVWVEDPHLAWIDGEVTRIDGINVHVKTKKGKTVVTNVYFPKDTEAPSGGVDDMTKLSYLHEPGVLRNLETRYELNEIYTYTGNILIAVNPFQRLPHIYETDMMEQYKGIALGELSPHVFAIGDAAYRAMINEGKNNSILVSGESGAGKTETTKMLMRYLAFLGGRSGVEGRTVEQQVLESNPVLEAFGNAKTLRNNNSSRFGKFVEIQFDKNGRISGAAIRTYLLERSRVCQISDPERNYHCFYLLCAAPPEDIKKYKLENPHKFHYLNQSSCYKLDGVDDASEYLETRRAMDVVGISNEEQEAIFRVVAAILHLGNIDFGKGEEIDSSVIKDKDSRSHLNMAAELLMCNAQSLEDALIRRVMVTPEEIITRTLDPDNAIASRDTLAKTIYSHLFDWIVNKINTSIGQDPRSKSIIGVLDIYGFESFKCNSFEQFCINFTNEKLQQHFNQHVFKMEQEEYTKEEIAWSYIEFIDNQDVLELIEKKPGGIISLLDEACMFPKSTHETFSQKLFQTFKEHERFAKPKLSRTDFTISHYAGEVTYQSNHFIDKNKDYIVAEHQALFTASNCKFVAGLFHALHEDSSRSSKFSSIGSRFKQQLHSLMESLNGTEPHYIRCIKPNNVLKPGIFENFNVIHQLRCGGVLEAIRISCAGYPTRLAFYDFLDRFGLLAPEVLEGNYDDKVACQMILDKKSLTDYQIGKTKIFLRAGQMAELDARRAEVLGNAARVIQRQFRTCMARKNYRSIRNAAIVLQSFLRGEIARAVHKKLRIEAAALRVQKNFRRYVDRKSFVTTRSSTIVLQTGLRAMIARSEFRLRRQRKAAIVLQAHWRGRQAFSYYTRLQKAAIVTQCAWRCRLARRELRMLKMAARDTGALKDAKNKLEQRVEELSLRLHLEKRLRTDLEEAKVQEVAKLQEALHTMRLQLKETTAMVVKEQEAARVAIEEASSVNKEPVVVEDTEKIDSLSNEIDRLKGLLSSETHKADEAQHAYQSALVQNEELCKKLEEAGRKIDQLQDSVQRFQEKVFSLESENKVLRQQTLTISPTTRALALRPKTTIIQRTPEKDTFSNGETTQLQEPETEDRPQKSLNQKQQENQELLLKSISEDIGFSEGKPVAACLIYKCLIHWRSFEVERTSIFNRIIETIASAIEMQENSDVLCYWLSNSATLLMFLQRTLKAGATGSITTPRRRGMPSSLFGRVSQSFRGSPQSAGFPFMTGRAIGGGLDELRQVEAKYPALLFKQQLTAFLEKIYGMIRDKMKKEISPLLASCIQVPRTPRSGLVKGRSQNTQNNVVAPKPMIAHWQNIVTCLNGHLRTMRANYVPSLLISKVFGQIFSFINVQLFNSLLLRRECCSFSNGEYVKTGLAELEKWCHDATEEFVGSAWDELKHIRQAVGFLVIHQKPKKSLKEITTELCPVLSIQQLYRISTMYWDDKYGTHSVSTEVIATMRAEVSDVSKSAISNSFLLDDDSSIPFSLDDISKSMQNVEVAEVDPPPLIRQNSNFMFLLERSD
UniProt F4K5J1: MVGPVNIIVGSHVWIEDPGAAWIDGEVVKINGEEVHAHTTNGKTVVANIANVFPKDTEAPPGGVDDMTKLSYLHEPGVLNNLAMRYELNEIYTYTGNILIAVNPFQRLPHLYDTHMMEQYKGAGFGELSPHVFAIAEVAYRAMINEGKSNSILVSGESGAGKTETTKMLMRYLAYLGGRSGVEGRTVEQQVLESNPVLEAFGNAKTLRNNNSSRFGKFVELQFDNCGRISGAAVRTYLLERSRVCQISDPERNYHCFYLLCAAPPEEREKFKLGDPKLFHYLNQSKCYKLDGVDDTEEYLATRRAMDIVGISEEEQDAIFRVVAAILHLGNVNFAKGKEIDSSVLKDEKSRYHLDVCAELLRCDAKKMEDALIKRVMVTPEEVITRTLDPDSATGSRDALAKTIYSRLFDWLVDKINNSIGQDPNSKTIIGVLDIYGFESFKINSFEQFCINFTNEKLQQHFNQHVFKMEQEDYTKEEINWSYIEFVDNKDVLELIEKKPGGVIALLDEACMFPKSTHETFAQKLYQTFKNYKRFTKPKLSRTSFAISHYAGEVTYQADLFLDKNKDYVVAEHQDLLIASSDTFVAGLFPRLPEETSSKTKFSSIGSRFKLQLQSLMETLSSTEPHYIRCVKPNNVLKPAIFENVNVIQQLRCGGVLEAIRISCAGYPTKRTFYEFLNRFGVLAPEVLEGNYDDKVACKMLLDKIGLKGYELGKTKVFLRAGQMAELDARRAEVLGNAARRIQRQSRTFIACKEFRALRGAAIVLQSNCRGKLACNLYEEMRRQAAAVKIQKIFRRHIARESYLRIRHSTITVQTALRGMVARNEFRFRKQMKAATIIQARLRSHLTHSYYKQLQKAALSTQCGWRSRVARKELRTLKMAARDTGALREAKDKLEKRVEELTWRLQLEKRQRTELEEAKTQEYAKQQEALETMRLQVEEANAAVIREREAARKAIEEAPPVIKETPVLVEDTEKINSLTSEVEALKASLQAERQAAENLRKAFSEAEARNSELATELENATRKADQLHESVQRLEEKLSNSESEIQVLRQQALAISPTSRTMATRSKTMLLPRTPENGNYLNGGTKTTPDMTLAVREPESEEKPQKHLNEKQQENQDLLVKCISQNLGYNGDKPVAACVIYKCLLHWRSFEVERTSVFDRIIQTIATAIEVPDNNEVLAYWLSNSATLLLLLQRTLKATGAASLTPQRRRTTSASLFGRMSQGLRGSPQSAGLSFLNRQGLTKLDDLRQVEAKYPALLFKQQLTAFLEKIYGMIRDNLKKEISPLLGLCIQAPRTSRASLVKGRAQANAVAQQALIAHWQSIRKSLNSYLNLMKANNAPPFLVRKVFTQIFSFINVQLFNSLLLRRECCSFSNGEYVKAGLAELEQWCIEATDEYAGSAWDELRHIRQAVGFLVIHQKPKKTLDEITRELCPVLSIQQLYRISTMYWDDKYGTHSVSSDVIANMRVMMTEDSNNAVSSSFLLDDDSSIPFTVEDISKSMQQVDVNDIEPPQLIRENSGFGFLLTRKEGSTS

Target: GFP-MRF7 (Myosin Recruitment Factor 7), stable A. thaliana line (A. thaliana)
Assay: affinity purification with mass spectrometry; GFP-Trap_A beads (Chromotek) on total protein extracts of two-week-old A. thaliana seedlings (wild type, GFP-MRF7, GFP-ΔMRF7); LC-MS of the whole sample; hits with #PSM higher than 5 kept

Row | Substance | binding
1 | Myosin XI-1 (endogenous) (from UniProt Q39160 1-1520) | no binding
2 | Myosin XI-K (endogenous) (from UniProt F4K5J1 1-1531) | binds

Results are given in words; binding and its absence hold for the method and conditions named. In cells and extracts the contact can be indirect. A yes stands for co-enrichment or nearness to the bait. Other partners may have been found. No binding means not detected with the bait.
